In article PMC5520895:
Results are given in words; binding and its absence hold for the method and conditions named. Binding seen in cells or lysates may run through a third protein. Some entries that bind do so weakly or less than the wild type.

The chains behind the UniProt entries cited, without tags or fusion partners.
UniProt Q3TKT4: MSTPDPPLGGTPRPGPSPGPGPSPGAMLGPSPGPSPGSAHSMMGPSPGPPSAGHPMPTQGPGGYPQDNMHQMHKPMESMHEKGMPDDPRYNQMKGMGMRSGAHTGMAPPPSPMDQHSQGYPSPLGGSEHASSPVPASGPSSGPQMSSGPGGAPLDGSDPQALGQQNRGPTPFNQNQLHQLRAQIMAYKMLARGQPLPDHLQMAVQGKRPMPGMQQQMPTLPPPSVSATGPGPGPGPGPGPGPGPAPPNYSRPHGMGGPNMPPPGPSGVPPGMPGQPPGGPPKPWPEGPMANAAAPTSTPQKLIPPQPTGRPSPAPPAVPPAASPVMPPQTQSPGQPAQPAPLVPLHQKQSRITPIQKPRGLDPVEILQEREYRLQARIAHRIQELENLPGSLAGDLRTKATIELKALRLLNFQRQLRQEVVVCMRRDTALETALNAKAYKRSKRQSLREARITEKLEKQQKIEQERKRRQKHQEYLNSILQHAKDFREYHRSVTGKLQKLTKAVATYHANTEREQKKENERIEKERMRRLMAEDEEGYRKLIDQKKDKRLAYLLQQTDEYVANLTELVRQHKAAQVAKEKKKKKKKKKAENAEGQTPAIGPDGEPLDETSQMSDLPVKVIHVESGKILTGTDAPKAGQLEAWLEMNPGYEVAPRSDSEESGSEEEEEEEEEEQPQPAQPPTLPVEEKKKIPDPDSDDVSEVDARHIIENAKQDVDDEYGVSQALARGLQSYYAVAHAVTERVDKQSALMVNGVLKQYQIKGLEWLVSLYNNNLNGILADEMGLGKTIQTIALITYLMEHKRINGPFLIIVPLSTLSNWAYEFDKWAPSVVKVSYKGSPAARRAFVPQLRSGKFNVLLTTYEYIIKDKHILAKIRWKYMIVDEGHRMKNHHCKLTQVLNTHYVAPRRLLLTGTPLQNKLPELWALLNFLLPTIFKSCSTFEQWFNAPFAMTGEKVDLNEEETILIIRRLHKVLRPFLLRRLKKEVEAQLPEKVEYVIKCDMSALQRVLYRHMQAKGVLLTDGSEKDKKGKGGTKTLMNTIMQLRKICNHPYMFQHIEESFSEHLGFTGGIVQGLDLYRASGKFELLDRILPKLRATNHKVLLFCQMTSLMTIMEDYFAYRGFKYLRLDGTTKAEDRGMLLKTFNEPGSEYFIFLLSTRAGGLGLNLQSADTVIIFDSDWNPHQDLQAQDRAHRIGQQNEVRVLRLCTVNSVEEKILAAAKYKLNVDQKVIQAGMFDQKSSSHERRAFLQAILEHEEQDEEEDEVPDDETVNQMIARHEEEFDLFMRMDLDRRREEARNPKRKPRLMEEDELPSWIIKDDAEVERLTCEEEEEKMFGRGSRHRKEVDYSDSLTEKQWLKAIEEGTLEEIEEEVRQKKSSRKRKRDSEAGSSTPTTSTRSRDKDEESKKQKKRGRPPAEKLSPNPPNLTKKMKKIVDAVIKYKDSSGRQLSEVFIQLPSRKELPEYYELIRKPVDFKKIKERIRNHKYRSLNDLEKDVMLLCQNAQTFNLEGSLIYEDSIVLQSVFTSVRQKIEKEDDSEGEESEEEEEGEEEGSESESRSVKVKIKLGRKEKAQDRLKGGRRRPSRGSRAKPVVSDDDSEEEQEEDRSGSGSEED

Molecular target: Brahma-related gene 1 (Brg1) (mouse (endogenous in AML12)) (UniProt Q3TKT4)
Assay: co-IP; 500 ug AML12 hepatocyte extract immunoprecipitated with 2 ug Brg1 antibody (IgG as negative control) and protein A/G PLUS-Agarose, PBS washes, blotted for Brg1 and Nrf2; cells untreated or pretreated with Nrf2 siRNA or Brg1-Adv, with or without hypoxia 12 h / reoxygenation 4 h

binding: binds
B1: nuclear factor E2-related factor 2 (Nrf2) (protein, UniProt Q60795 1-597)
chain: MMDLELPPPGLQSQQDMDLIDILWRQDIDLGVSREVFDFSQRQKDYELEKQKKLEKERQEQLQKEQEKAFFAQFQLDEETGEFLPIQPAQHIQTDTSGSASYSQVAHIPKQDALYFEDCMQLLAETFPFVDDHESLALDIPSHAESSVFTAPHQAQSLNSSLEAAMTDLSSIEQDMEQVWQELFSIPELQCLNTENKQLADTTAVPSPEATLTEMDSNYHFYSSISSLEKEVGNCGPHFLHGFEDSFSSILSTDDASQLTSLDSNPTLNTDFGDEFYSAFIAEPSDGGSMPSSAAISQSLSELLDGTIEGCDLSLCKAFNPKHAEGTMEFNDSDSGISLNTSPSRASPEHSVESSIYGDPPPGFSDSEMEELDSAPGSVKQNGPKAQPAHSPGDTVQPLSPAQGHSAPMRESQCENTTKKEVPVSPGHQKAPFTKDKHSSRLEAHLTRDELRAKALHIPFPVEKIINLPVDDFNEMMSKEQFNEAQLALIRDIRRRGKNKVAAQNCRKRKLENIVELEQDLGHLKDEREKLLREKGENDRNLHLLKRRLSTLYLEVFSMLRDEDGKPYSPSEYSLQQTRDGNVFLVPKSKKPDTKKN
